One experiment concerns the target GFP-dynactin 6 (UniProt O00399). Briefly: co-IP; HEK 293 cells co-transfected with myc-tagged Rab and GFP fusion; lysis in 50 mM Tris pH 7.4, 150 mM NaCl, 1% Triton X-100; GFP fusions precipitated on GBP agarose beads, room temperature 1.5 h; blot for myc and GFP; co-IP efficiency = co-IP / input.
A further experiment deals with T1, GFP-syntaxin 8 (UniProt Q9UNK0).
T1 sequence: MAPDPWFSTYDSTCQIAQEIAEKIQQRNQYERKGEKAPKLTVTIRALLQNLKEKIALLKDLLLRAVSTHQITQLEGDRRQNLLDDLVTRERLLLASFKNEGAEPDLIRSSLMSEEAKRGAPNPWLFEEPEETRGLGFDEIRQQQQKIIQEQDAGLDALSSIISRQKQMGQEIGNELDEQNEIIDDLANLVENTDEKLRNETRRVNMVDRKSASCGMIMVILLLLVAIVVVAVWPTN
The experiment is described as above.

The chains behind the UniProt entries cited, without tags or fusion partners.
UniProt O00399: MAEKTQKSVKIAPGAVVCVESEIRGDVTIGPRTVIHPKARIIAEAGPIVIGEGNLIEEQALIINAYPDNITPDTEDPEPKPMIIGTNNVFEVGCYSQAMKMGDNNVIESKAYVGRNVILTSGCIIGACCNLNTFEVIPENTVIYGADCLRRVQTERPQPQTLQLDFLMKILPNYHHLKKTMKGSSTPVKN
UniProt P20340: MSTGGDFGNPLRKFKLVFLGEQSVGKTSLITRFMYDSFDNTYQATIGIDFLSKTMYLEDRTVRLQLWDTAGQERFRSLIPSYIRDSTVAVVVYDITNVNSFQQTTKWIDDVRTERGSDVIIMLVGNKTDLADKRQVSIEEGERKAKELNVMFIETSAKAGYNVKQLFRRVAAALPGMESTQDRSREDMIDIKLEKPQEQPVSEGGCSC

These are yes or no findings as the source states them, for the method shown. In cells and extracts the contact can be indirect. Some binding calls cover weakened binding; strength is not graded here. For some assays here: Tags and fused reporters may be left off the sequences shown.

With “myc-tagged wild type Rab6a (from UniProt P20340 1-208)”, the binding result with GFP-dynactin 6 and with GFP-syntaxin 8 was “binds” each time.

The values are drawn from paper PMC4771738.
